Reference: PMC12040169 (PLOS Biology, 2025)
The other results are listed elsewhere or left out.

These compounds were tested on T1, CTL2-GFP (C. trachomatis L2/434/Bu, GFP-expressing). Conditions: bulk GFP, single well; 28.5 h, 10 µM; inhibitor.
T1 construct: L2/434/Bu, GFP-expressing
Set-up: species or system HeLa; Intracellular C. trachomatis growth in HeLa cells, bulk GFP fluorescence relative to DMSO
For `NC(=O)CCN1CCC(Cc2ccccc2)CC1` [CBK138317], the “% of control remaining” value was 151.829%.
With `NC(=O)CN1CCC2(CC1)CN(CC(N)=O)c1ccccc12` [CBK126789] the “% of control remaining” value was 82.999%.
`CNC(=O)c1cccc(NS(=O)(=O)c2sc3ccc(Cl)cc3c2C)c1` [CBK160383] was tested, and the “% of control remaining” value was 125.599%.
In the case of `COc1cc(CNCc2cccs2)cc(Cl)c1OCC(N)=O` [CBK270237C], the “% of control remaining” value is reported as 139.351%.
For `CCn1c(SCC(=O)Nc2ccc(C(C)=O)cc2)nnc1-c1cc(Br)ccc1O` [CBK268515], the “% of control remaining” value was 162.966%.
With `O=C(O)CSc1nnc(-c2ccco2)n1-c1ccccc1` [CBK131685] the “% of control remaining” value was 118.367%.
For `CC1CCN(c2ccc(C(=O)CCCO)cc2)CC1` [CBK010358], the “% of control remaining” value was 116.098%.
`O=C(NCCCc1ccccc1Cl)c1ccc(=O)n(CC(=O)N2CCCCC2)c1` [CBK286078] was tested, and the “% of control remaining” value was 113.4%.
For `CCNC(=O)Nc1cc2cccnc2nc1-c1cc(F)cc(F)c1` [CBK070638], the “% of control remaining” value was 111.33%.
With `CC(=O)Nc1ccc(S(=O)(=O)N2CCN(S(=O)(=O)c3ccccc3[N+](=O)[O-])CC2)cc1` [CBK264314] the “% of control remaining” value was 122.27%.
`Nc1ncc(-c2cc3ccccc3o2)nc1-c1ccc(C=O)cc1` [CBK064126] was tested, and the “% of control remaining” value was 169.914%.
With `O=[N+]([O-])c1cccc(NS(=O)(=O)c2ccc(Cl)c(Cl)c2)c1` [CBK044396] the “% of control remaining” value was 102.522%.
In the case of `CN(C)CCN1C(=O)C(O)=C(C(=O)c2ccc(S(=O)(=O)N3CCOCC3)cc2)C1c1ccc(F)cc1` (centres unmarked) [CBK264683], the “% of control remaining” value is reported as 100%.
In the case of `CCN1CCN(C(=O)CN(Cc2ccc(Cl)cc2)S(C)(=O)=O)CC1` [CBK269263], the “% of control remaining” value is reported as 154.804%.
In the case of `Brc1ccc(-c2nc(NCCCN3CCOCC3)cc(-c3ccccc3)n2)cc1` [CBK261712], the “% of control remaining” value is reported as 102.495%.
In the case of `Cc1ccc(-n2cnnn2)c(S(=O)(=O)N2CCOCC2)c1` [CBK268297], the “% of control remaining” value is reported as 114.749%.
With `CCOC(=O)C1(C2CCCCC2)CCN(C(=O)CC2NC(=O)NC2=O)CC1` (centres unmarked) [CBK136938] the “% of control remaining” value was 107.537%.
`O=[N+]([O-])c1ccc(CN2CCN(c3nccnc3OCCN3CCOCC3)CC2)cc1` [CBK082892T] was tested, and the “% of control remaining” value was 146.222%.
`O=C(O)CCCSCC(=O)Nc1ccccc1` [CBK276905] was tested, and the “% of control remaining” value was 150.937%.
`O=C(CSc1nnc(SCc2cccc3ccccc23)s1)c1ccc(F)cc1` [CBK266218] was tested, and the “% of control remaining” value was 111.644%.
`Cn1c2ccccc2c2cc(/C=C(/NC(=O)c3ccccc3)C(=O)Nc3cccc(O)c3)ccc21` [CBK261449] was tested, and the “% of control remaining” value was 100%.
`CC1CN(Cc2c(C(F)(F)F)[nH]c3ncccc23)CC(C)O1` (centres unmarked) [CBK285344] was tested, and the “% of control remaining” value was 119.441%.
For `CCOc1ccccc1NC(=O)NC(=O)C1CCN(CCCc2ccc3c(c2)OCO3)CC1` [CBK034924], the “% of control remaining” value was 171.078%.
For `Nc1cccc2c1C(=O)N(c1ccccc1C(=O)O)C2=O` [CBK287220], the “% of control remaining” value was 120.143%.
With `COc1ccc(C(=O)c2c[nH]c3ccccc23)cc1` [CBK111451] the “% of control remaining” value was 133.64%.
`O=c1n(Cc2ccccc2F)nc2nnc(-c3ccccc3)c(-c3ccccc3)n12` [CBK286179] was tested, and the “% of control remaining” value was 135.356%.
For `CCN(CCO)c1ccc(Nc2cc(-c3ccsc3)ncn2)cc1` [CBK091000], the “% of control remaining” value was 123.825%.
For `O=C(NCC1(N2CCOCC2)CCCCC1)c1ccccc1C(=O)c1ccc(F)cc1` [CBK297938], the “% of control remaining” value was 122.756%.
With `CCn1c(C)nnc1SCC(=O)Nc1cc(C(F)(F)F)ccc1Cl` [CBK304382] the “% of control remaining” value was 126.923%.
`O=C(O)c1cc(-n2c(S)nnc2-c2cnccn2)ccc1Cl` [CBK269285] was tested, and the “% of control remaining” value was 146.934%.
`Cc1nc(CN2CCC(Cc3ccccc3)CC2)cs1` [CBK126438] was tested, and the “% of control remaining” value was 75.9846%.
`CCOC(=O)N1CCN(C(=O)COc2cccc3ccccc23)CC1` [CBK262992] was tested, and the “% of control remaining” value was 116.784%.
`O=C(O)c1ccc(CSc2nnc(Cc3ccccc3)[nH]2)o1` [CBK269208] was tested, and the “% of control remaining” value was 158.904%.
`Cc1ccc(C(=O)N2CCN(Cc3ccccc3)CC2)cn1` [CBK200170] was tested, and the “% of control remaining” value was 120.286%.
For `COc1ccc([C@@]23CC[C@@H](NC(=O)Nc4cc(C)c(C)cc4[N+](=O)[O-])C[C@@H]2N(C)CC3)cc1OC` [CBK036478T], the “% of control remaining” value was 117.086%.
For `CNC1CCCCCC1(O)c1ccccc1` (centres unmarked) [CBK005073], the “% of control remaining” value was 99.208%.
With `O=C(Cc1cccs1)N1CCC(c2nnc3n2CCCCC3)CC1` [CBK284606] the “% of control remaining” value was 152.593%.
With `O=C(O)c1ccc(Nc2nc3ccccc3nc2NS(=O)(=O)c2ccc(Cl)cc2)cc1` [CBK296072] the “% of control remaining” value was 134.997%.
`CCc1nn(CC(=O)NC(C)(C)C)c(=O)c2cc3ccsc3n12` [CBK284183] was tested, and the “% of control remaining” value was 101.701%.
In the case of `O=C(CSc1nc(-c2ccccc2)cc(-c2ccccc2)n1)Nc1cccc([N+](=O)[O-])c1` [CBK263896], the “% of control remaining” value is reported as 131.668%.
With `CCNC(=O)Nc1ncc(-c2ccsc2)c2cccnc12` [CBK070686] the “% of control remaining” value was 77.1284%.
`CCC(c1c(O)c2ccccc2oc1=O)c1cccc2ccccc12` (centres unmarked) [CBK016684] was tested, and the “% of control remaining” value was 86.1328%.
For `O=C(O)c1[nH]c2ccccc2c1C(c1ccsc1)c1c(C(=O)O)[nH]c2ccccc12` [CBK267811], the “% of control remaining” value was 12.6515%.
With `c1ccc(-c2c(-c3ccccc3)n(Cc3ccco3)c3ncn4nc(-c5ccncc5)nc4c23)cc1` [CBK265298] the “% of control remaining” value was 100%.
With `COc1cc(/C=N/Nc2nc(-c3ccccc3)cc(-c3ccc(OC)c(OC)c3)n2)ccc1O` [CBK262841] the “% of control remaining” value was 40.8745%.
`O=[N+]([O-])c1ccccc1OCCNCc1ccccc1` [CBK265511G] was tested, and the “% of control remaining” value was 110.82%.
`CCOC(=O)CNS(=O)(=O)c1cccs1` [CBK044958] was tested, and the “% of control remaining” value was 189.431%.
With `CCOC(=O)N1CCC(NC(=O)N2CCN(CCc3ccccc3)CC2)CC1` [CBK158938] the “% of control remaining” value was 139.119%.
`C[C@H](Nc1cncc(-c2cccc(N(C)C)c2)n1)c1ccccc1` [CBK065699] was tested, and the “% of control remaining” value was 88.744%.
In the case of `CC(CN1CCCCC1)OC(=O)COc1ccc(Br)cc1` (centres unmarked) [CBK265326C], the “% of control remaining” value is reported as 117.249%.
For `O=C(Cn1c(NCCCO)nc2ccccc21)c1cccs1` [CBK023894B], the “% of control remaining” value was 78.5494%.
`Nc1cc(N)nc(SCC(=O)Nc2ccc(Oc3ccccc3)cc2)n1` [CBK266749] was tested, and the “% of control remaining” value was 115.011%.
In the case of `COc1ccc(-n2c(=O)c3ccccc3n(CC(=O)NC3CCCC3)c2=O)cc1` [CBK287574], the “% of control remaining” value is reported as 149.762%.
For `O=C(c1cccs1)N1CC(n2nc(-c3cccs3)ccc2=O)C1` [CBK283347], the “% of control remaining” value was 82.4478%.
With `CC(C)(C)c1ccccc1NC(=O)N(CCCN)Cc1cc(F)cc(F)c1` [CBK034697C] the “% of control remaining” value was 138.158%.
With `C[C@@H](Cn1nnc2ccccc21)NC(=O)Cc1cccc(F)c1` [CBK282306] the “% of control remaining” value was 132.312%.
`CCC1(CC)C(=O)N=C(C(C)(C)C)NC1=O` [CBK076759] was tested, and the “% of control remaining” value was 136.897%.
For `O=C(O)c1ccccc1-c1ccccc1C(=O)NCCCO` [CBK267197], the “% of control remaining” value was 165.244%.
For `Cc1csc2c(C3CCCN(C(=O)c4ccccn4)C3)nc(C)n12` (centres unmarked) [CBK284594], the “% of control remaining” value was 132.776%.
With `Cc1sc2nc(NCCO)[nH]c(=O)c2c1C` [CBK018257] the “% of control remaining” value was 104.405%.
`CCNc1cc2ccccc2c(-c2ccc(OC)c(C)c2)n1` [CBK089644] was tested, and the “% of control remaining” value was 131.427%.
In the case of `Cc1ccc(CN(CCCn2ccnc2)Cc2cnn(C)c2)s1` [CBK283113], the “% of control remaining” value is reported as 114.613%.
In the case of `O=C(COc1ccc(S(=O)(=O)N2CCCCC2)cc1)Nc1ccc2c(c1)OCCO2` [CBK268205], the “% of control remaining” value is reported as 99.8053%.
In the case of `COc1ccc([C@@]23CCC(N)C[C@@H]2N(C)CC3)c(F)c1OC` (some centres unmarked) [CBK067416], the “% of control remaining” value is reported as 123.096%.
`c1ccc2c(c1)nc(N1CCNCC1)n1cnnc21` [CBK270145] was tested, and the “% of control remaining” value was 124.079%.
In the case of `c1ccc(-c2nnc3sc(-c4ccccn4)nn23)cc1` [CBK267344], the “% of control remaining” value is reported as 134.943%.
`O=C(Cc1c[nH]c2ccccc12)N1CCC2(CCCN(C(=O)c3ccc(OC(F)(F)F)cc3)C2)C1` (centres unmarked) [CBK131579] was tested, and the “% of control remaining” value was 121.232%.
For `Brc1ccc(-c2nnco2)cc1` [CBK026512], the “% of control remaining” value was 115.658%.
For `CCOC(=O)N1CCC(NC(=O)N(CCC#N)C2CCCCC2)CC1` [CBK156384], the “% of control remaining” value was 117.961%.
With `CCOC(=O)C1=c2s/c(=C\c3cccnc3)c(=O)n2C(N)=C(C#N)C1c1cccnc1` (centres unmarked) [CBK262549] the “% of control remaining” value was 85.8526%.
For `O=[N+]([O-])c1cc2c(cc1C(Nc1ccccn1)c1cc(Cl)c3cccnc3c1O)OCO2` (centres unmarked) [CBK267795], the “% of control remaining” value was 50.0861%.
In the case of `CCOC(=O)C1CCCN(S(=O)(=O)c2cc(C)c(Cl)cc2C)C1` (centres unmarked) [CBK044846], the “% of control remaining” value is reported as 59.8349%.
`C=CCNC(=O)C1C2CCC3(CC(=O)c4cc(Cl)ccc4O3)C21` (centres unmarked) [CBK284873] was tested, and the “% of control remaining” value was 130.972%.
With `c1ccc(-c2nccnc2NCC2CC2)cc1` [CBK088539] the “% of control remaining” value was 100%.
With `CCOC(=O)C1CCCN(Cc2cc(F)cc(C(C)=O)c2O)C1` (centres unmarked) [CBK304020] the “% of control remaining” value was 105.593%.
For `COC(=O)[C@H]1CN(C(=O)C2CC(=O)N(C)C2)C[C@@H]1c1ccccc1F` (some centres unmarked) [CBK285470], the “% of control remaining” value was 76.9558%.
With `O=C(NO)c1nc[nH]c1C(=O)NO` [CBK262077] the “% of control remaining” value was 100%.
For `Cc1ccc(Oc2nnnn2-c2ccccc2)c(Br)c1` [CBK002827], the “% of control remaining” value was 114.035%.
`Cc1csc(CCNCc2c(C(C)C)nn(C)c2N(C)C)n1` [CBK304140] was tested, and the “% of control remaining” value was 119.166%.
In the case of `CC(CC(=O)N1CCOC(c2nc(C(C)(C)C)n[nH]2)C1)n1cccc1` (centres unmarked) [CBK305214], the “% of control remaining” value is reported as 122.715%.
